In PubChem BioAssay AID504444 (National Center for Advancing Translational Sciences (NCATS), 2011):
In all, about 360,000 compounds went through this assay and about 7,500 (2.1%) were called active. Inconclusive means that the source gave no clear call. Such entries were picked first, then a sample of the others. Calls follow the shape of the dose curve; as a rule, active = well fitted inhibition curve with a large enough effect; inconclusive = small, poorly fitted or top-dose-only effect, or effect the other way; inactive = flat fitted curve, though single readings scatter. Potencies of inconclusive entries are doubtful fits and often do not repeat.

Test: Nrf2 qHTS screen for inhibitors; also: nearly all actives have a fitted effect of over 60% in size
Conditions: A549 ARE-Fluc reporter, luciferase luminescence, 18-24 h; activity change, negative = inhibition: at 46 µM (top of the series)
Summary of the method: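 A549 ARE_Fluc cells, 5000/well, 5% FBS OPTI-MEM; compounds in dose-response, 18-24 h at 37 °C/5% CO2; CellTiter-Fluor viability read (Ex 405/Em 525), then BugLite luciferase luminescence = Nrf2 activity.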
% is scaled to controls: 0 for no effect and ±100 for the full control effect; potency is read from the fitted curve at half-maximal effect.

Row | SMILES | Potency | activity change, negative = inhibition
1 | Cn1cnnc1SCC(=O)Nc1ccc2nc(SCc3ccccc3)sc2c1 | inconclusive: 3.26 µM [activator, partial curve] | 
2 | S=C1Cc2ccccc2N1 | active: 11.6 µM | 
3 | Cc1ccc(NC(=O)C2CCN(S(=O)(=O)c3ccc4c(c3)NC(=O)CO4)CC2)cc1 | inconclusive: 25.9 µM [falling, partial curve, poor fit] | 
4 | COC(=O)C1=C(C(=O)OC)[C@@H]2N(Cc3ccccc3)c3ccccc3[C@@]23C[C@@H](C(=O)OC)N(C(=O)c2cccs2)C3=N1 | active: 29.1 µM | 
5 | CCOc1ccc(NC(=O)C2CCN(c3nnc(C)c4c(C)n(-c5ccccc5)nc34)CC2)cc1 | inconclusive: 29.1 µM [activator, single point] | 
6 | Cc1ccc(NC(=O)C(=O)NN)cc1 | inconclusive: 0.651 µM [activator, full curve, poor fit] | 
7 | COc1ccc(-n2c(Cc3cccn3C)nnc2SCC(=O)Nc2ccc(F)cc2F)cc1 | inconclusive: 1.3 µM [falling, partial curve] | 
8 | Cc1ccc(-c2[nH]c3c(c2-c2c(-n4cccc4)n(C)c(=O)[nH]c2=O)c(=O)[nH]c(=O)n3C)cc1 | inactive | 
9 | CCOC(=O)c1c(C)oc2nc(C)nc(N3CCN(c4ccccc4F)CC3)c12 | inconclusive: 9.2 µM [falling, partial curve] | 
10 | COc1ccccc1-c1nn2c(-c3cc(-c4ccccc4)n[nH]3)nnc2s1 | inactive | 
11 | Cc1cccc(N2CCN(C(=O)C3CCN(C(=O)c4cc5sccc5n4C)CC3)CC2)c1C | inconclusive: 25.9 µM [falling, single point] | 
12 | CCN(CC)S(=O)(=O)c1cccc(C(=O)N2CC(O)CC2C(=O)O)c1 (centres undefined) | inconclusive: 2.06 µM [activator, partial curve, poor fit] | 
13 | Cc1[nH]n2c(=O)cc(-c3ccc(Cl)cc3)nc2c1-c1ccccc1 | active: 7.31 µM | 
14 | S=C(NCCCc1cnc[nH]1)NCCN(Cc1ccc(Cl)c(Cl)c1)c1ccc(Br)cn1 | inactive | 
15 | CC(=O)c1sc(NC(=O)CCS(=O)(=O)c2ccc(C)cc2)nc1C | inactive | 
16 | Cn1c(=O)c2c(nc(N3CCOCC3)n2Cc2cccc(Br)c2)n(C)c1=O | inactive | 
17 | COc1ccc([C@H]2CC(=O)C=C(c3ccc(C)cc3)C2)cc1OC | inconclusive: 14.6 µM [falling, partial curve] | 
18 | Cc1nn2c(-c3ccco3)ccnc2c1-c1ccc(Br)cc1 | inconclusive: 4.11 µM [activator, partial curve] | 
19 | CCOc1ccc(C(=O)c2cn(CC(=O)Nc3cccc(OC)c3)c3cc4c(cc3c2=O)OCCO4)cc1 | inactive | 
20 | Cc1c(C(=O)N2CCCCC2)c(S(=O)(=O)NCc2ccc(N(C)C)cc2)c(C)n1C | inconclusive: 29.1 µM [activator, single point] | 
21 | CC1=C(C(N)=O)C(c2cccnc2)n2nc(-c3cccc(C)c3)nc2N1 (centres undefined) | inactive | 
22 | Cc1ccc(-c2cc(N)n(-c3ccc(C)cc3)n2)cc1 | inconclusive: 9.2 µM [activator, partial curve] | 

Sorted by length of the SMILES (descending): some entries from above.
Row | SMILES | Potency | activity change, negative = inhibition
3 | Cc1ccc(NC(=O)C2CCN(S(=O)(=O)c3ccc4c(c3)NC(=O)CO4)CC2)cc1 | inconclusive: 25.9 µM [falling, partial curve, poor fit] | 
20 | Cc1c(C(=O)N2CCCCC2)c(S(=O)(=O)NCc2ccc(N(C)C)cc2)c(C)n1C | inconclusive: 29.1 µM [activator, single point] | 
22 | Cc1ccc(-c2cc(N)n(-c3ccc(C)cc3)n2)cc1 | inconclusive: 9.2 µM [activator, partial curve] | 

(continued)

Row | SMILES | Potency | activity change, negative = inhibition
23 | S=c1nc(COc2ccccc2)[nH]c2ccccc12 | inconclusive: 7.31 µM [activator, single point] | 
24 | COc1ccccc1OCC(=O)Nc1ccc(S(=O)(=O)N(C)c2ccccc2)cc1 | inconclusive: 32.6 µM [falling, single point] | 
25 | CC1Cc2cc(-c3csc(NC(=O)Cc4cccs4)n3)ccc2N1S(C)(=O)=O (centres undefined) | inconclusive: 23.1 µM [falling, single point] | 
26 | Cc1ccc(S(=O)(=O)N(C)CC(O)Cn2c3ccccc3c3ccccc32)cc1 (centres undefined) | inconclusive: 29.1 µM [falling, single point] | 
27 | CC1(C)CC(=O)C2=C(C1)N(CCN1CCOCC1)C1=C(C(=O)CC(C)(C)C1)C2c1cccc(Cl)c1 | inconclusive: 4.11 µM [falling, partial curve, poor fit] | 
28 | O=C(CN1C(=O)COc2ccc(S(=O)(=O)N3CCCCCC3)cc21)Nc1cccc(Cl)c1 | inconclusive: 29.1 µM [falling, single point] | 
29 | CC(=O)c1cccc(N2Cc3ccccc3C2=NC(=O)CCl)c1 | inconclusive: 7.31 µM [falling, partial curve, poor fit] | 
30 | Cc1ccc(C(C)NC(=S)NCc2ccc(F)cc2)cc1C (centres undefined) | inconclusive: 18.4 µM [falling, partial curve, poor fit] | 
31 | CCCCCn1nc(C(=O)OCc2nc(N)nc(Nc3ccccc3)n2)c2ccccc2c1=O | inconclusive: 32.6 µM [falling, partial curve, poor fit] | 
32 | COc1cc(C2c3cc4c(cc3OC(Nc3ccc(C(=O)O)cc3)C2C)OCO4)cc(OC)c1OC (centres undefined) | inactive | 
33 | CC1(c2ccc3ccccc3c2)NC(=O)N(CC(=O)O)C1=O (centres undefined) | inactive | 
34 | CC1CCN(c2nn3c(=O)c(C(=O)NCCc4ccccc4)cnc3s2)CC1 | inconclusive: 32.6 µM [falling, single point] | 
35 | Cc1c(NC(=O)C2CCCN2S(=O)(=O)c2ccc(Cl)cc2)c(=O)n(-c2ccccc2)n1C (centres undefined) | inconclusive: 9.2 µM [falling, single point] | 
36 | NS(=O)(=O)c1ccc(CCNC(=S)Nc2ccccc2)cc1 | inconclusive: 20.6 µM [falling, partial curve, poor fit] | 
37 | CC(/C=N/NC(=O)c1cccc(F)c1)=C\c1ccccc1 | inconclusive: 0.517 µM [activator, full curve, poor fit] | 
38 | Cn1c(-c2ccccc2)c(/C=N/NC(=O)c2cccnc2)c2ccccc21 | inconclusive: 18.4 µM [activator, partial curve] | 
39 | Cc1ccc2[nH]cc(S(=O)(=O)c3ccc(C)c(C)c3)c(=O)c2c1 | inconclusive: 25.9 µM [falling, partial curve, poor fit] | 
40 | Cc1cccc(OCC(=O)NCc2n[nH]c(=O)c3ccccc23)c1 | inconclusive: 20.6 µM [falling, partial curve, poor fit] | 
41 | C/C(=N\NC(=O)c1cccs1)c1cccnc1 | inconclusive: 20.6 µM [activator, partial curve] | 
42 | c1ccc2c(Nc3nnc(-c4ccncc4)s3)cccc2c1 | inconclusive: 14.6 µM [activator, partial curve] | 
43 | Cc1ccc(F)cc1NC(=O)CCc1c(C)nn(-c2ccc(N3CCOCC3)nn2)c1C | inconclusive: 20.6 µM [activator, single point] | 
44 | COc1cc(/C=N/NC(=O)c2ccccc2)ccc1OS(=O)(=O)c1ccccc1 | inactive | 

Row | SMILES | Potency | activity change, negative = inhibition
45 | CC(=O)c1c(C)[nH]c(C(=O)COc2ccc(C#N)cc2)c1C | active: 11.6 µM | 
46 | Cc1c(C(=O)N2CCN(Cc3ccc4c(c3)OCO4)CC2)sc2ncnc(N3CCN(c4ccccc4)CC3)c12 | active: 1.16 µM | 
47 | CCN(CC)CCNc1ccc(CO)c2sc3ccccc3c(=O)c12 | active: 6.51 µM | 
48 | CCc1cc2c(C)ccc(C)c2nc1SCC(=O)Nc1c[nH]c(=O)[nH]c1=O | inconclusive: 29.1 µM [falling, single point] | 
49 | Cc1c(C(=O)N2CCCC2)oc2c1-c1nn(CC(=O)NCc3ccccc3Br)cc1CC2 | inconclusive: 29.1 µM [falling, single point] | 
50 | Cc1nc(N2CCCCCC2)c2ccccc2n1 | active: 18.4 µM | 
51 | Cc1csc(NC(=O)CCn2c(=O)sc3ccccc32)n1 | inactive | 
52 | COc1ccc(NC(=O)CCS(=O)(=O)c2nc(-c3ccc4c(c3)OCO4)cc(C(F)(F)F)n2)cc1 |  | inactive: 9.13% [at 9.27 µM]
53 | CCC(C)Sc1cc(-c2nc3ccccn3c2NC2CCCCC2)ccc1OC (centres undefined) | inconclusive: 29.1 µM [falling, single point] | 
54 | O=C(CCNC(=O)c1ccco1)Nc1ccc(SC(F)F)cc1 | inconclusive: 29.1 µM [activator, single point] | 
55 | COc1ccc(N=Nc2ccc(CO)cc2)cc1 | inconclusive: 2.31 µM [activator, full curve] | 
56 | CCOc1ccccc1N(CC(=O)N(C)Cc1ccccc1)S(=O)(=O)c1ccccc1 | inconclusive: 25.9 µM [falling, partial curve, poor fit] | 
57 | CC(C)N(C(=O)[C@H]1C[C@H](CC(=O)NCC23CC4CC(CC(C4)C2)C3)C(=O)N2CCc3c([nH]c4cc(-c5ccco5)ccc34)[C@]12C)C(C)C | inconclusive: 18.4 µM [falling, single point] | 
58 | Cc1cc(=O)oc2c(CN3CCCCC3)c(O)c(Cl)cc12 | inconclusive: 3.26 µM [activator, partial curve, poor fit] | 
59 | CC(=O)N1CCc2cc(S(=O)(=O)NCCC(=O)N3CCN(Cc4ccccc4)CC3)ccc21 | inconclusive: 25.9 µM [falling, partial curve, poor fit] | 
60 | O=C(COc1ccc(Cl)cc1)N1CCN(Cc2ccc3c(c2)OCO3)CC1 | inconclusive: 11.6 µM [activator, partial curve, poor fit] | 
61 | COC(=O)c1c(NC(=O)c2ccco2)sc2c1CCC2 | inconclusive: 4.11 µM [activator, partial curve] | 
62 | Cc1nn2c(NCC(C)C)c3c(nc2c1-c1ccccc1)CCC3 | inconclusive: 7.31 µM [falling, partial curve, poor fit] | 
63 | COc1ccc(NC(=S)Nc2cc(-c3ccccc3)[nH]n2)cc1Cl | inconclusive: 7.31 µM [falling, partial curve] | 
64 | CCOC(=O)c1oc2nc3c(cc2c1N)COC(C)(C)C3 | inconclusive: 23.1 µM [activator, single point] | 
